Assay results reported in patent publication US20140175018A1.
No constants are given. Whether binding was seen depends on the method and setting. Some results given as binding are weak or reduced against the parent protein; the word gives no strength.

The chains behind the UniProt entries cited, without tags or fusion partners. Residues count along the entry.
UniProt P41597: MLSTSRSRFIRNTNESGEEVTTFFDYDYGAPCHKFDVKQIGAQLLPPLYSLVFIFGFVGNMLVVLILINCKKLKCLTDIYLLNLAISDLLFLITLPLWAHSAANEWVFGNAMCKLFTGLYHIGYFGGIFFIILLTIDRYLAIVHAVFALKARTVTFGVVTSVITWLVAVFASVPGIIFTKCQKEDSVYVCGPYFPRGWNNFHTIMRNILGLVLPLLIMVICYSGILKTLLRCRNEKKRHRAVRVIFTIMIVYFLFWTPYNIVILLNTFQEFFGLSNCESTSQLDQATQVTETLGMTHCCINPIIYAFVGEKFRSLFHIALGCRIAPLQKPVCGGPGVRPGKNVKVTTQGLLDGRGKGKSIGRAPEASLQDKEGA
UniProt P13500, residues 24-99: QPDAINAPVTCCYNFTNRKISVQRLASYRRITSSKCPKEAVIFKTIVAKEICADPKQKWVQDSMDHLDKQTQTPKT

Target: chemokine (C-C motif) receptor 2 (CCR2) on blood cells (human) (UniProt P41597)
Assay: flow cytometry; MCP-1 binding compared with anti-CCR2 staining of monocytes

biotinylated and Alexa647 Fluor labeled MCP-1 (Almac Sciences) (from UniProt P13500 24-99) (ligand)
binding: binds
